For assay [1], the target named is GRIP1/SRC2, endogenous (human (endogenous in A549)) (UniProt Q15596). Put plainly: co-IP; A549 cells, vehicle or 100 nM Dex for 1 h; immunoprecipitation with a GRIP1 antibody; immunoblot for GRIP1 and Merm1.
Assay [2] concerns the target glucocorticoid receptor (GR), endogenous (human (endogenous in A549)) (UniProt P04150). The assay is described as follows: co-IP; A549 cells, vehicle or 100 nM Dex for 1 h; DNase-treated lysate, anti-GR antibody (BD Bioscience) and anti-mouse IgG Dynabeads at 4 °C; immunoblot for GR and Merm1; mouse IgG as control. On the technique in general: In western blotting, separated proteins are transferred to a membrane and probed.

By UniProt entry, the sequences of proteins in these tests, tags left out.
UniProt Q15596: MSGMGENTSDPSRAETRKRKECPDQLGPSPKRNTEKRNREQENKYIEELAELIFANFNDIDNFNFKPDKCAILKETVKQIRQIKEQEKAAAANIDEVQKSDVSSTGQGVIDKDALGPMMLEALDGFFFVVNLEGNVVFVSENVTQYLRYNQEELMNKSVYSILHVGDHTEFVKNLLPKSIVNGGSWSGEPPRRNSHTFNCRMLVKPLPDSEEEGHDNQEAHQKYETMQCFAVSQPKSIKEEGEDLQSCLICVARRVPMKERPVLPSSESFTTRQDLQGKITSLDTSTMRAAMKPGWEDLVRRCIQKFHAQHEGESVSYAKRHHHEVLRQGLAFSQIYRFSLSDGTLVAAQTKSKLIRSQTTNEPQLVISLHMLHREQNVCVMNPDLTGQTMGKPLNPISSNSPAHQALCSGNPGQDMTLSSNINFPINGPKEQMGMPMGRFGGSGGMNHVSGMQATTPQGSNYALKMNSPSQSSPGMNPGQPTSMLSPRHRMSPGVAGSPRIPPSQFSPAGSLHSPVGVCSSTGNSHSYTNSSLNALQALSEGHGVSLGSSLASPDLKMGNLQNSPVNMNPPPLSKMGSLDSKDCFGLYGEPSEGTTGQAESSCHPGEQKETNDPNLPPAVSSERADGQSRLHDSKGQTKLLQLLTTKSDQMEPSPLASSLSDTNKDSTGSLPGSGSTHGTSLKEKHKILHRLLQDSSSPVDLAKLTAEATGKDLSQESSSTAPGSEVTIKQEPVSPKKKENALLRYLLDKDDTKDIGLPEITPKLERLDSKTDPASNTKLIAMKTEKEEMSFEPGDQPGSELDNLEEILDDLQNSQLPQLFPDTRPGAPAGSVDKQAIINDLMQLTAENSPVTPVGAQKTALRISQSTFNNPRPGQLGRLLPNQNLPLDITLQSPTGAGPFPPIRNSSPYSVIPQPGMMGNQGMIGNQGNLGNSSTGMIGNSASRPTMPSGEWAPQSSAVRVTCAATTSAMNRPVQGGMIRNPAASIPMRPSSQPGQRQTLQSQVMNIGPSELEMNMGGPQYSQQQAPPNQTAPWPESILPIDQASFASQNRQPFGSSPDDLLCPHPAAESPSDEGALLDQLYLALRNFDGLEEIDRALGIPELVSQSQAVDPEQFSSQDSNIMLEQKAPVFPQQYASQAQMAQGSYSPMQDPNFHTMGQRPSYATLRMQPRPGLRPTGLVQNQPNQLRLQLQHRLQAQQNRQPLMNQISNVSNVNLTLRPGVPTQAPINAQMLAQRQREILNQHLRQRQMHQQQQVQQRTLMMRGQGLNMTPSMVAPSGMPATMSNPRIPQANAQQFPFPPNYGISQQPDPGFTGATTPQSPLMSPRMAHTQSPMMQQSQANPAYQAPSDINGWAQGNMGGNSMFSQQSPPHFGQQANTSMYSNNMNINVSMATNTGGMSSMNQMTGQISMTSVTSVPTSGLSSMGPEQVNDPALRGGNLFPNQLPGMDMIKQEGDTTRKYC
UniProt P04150: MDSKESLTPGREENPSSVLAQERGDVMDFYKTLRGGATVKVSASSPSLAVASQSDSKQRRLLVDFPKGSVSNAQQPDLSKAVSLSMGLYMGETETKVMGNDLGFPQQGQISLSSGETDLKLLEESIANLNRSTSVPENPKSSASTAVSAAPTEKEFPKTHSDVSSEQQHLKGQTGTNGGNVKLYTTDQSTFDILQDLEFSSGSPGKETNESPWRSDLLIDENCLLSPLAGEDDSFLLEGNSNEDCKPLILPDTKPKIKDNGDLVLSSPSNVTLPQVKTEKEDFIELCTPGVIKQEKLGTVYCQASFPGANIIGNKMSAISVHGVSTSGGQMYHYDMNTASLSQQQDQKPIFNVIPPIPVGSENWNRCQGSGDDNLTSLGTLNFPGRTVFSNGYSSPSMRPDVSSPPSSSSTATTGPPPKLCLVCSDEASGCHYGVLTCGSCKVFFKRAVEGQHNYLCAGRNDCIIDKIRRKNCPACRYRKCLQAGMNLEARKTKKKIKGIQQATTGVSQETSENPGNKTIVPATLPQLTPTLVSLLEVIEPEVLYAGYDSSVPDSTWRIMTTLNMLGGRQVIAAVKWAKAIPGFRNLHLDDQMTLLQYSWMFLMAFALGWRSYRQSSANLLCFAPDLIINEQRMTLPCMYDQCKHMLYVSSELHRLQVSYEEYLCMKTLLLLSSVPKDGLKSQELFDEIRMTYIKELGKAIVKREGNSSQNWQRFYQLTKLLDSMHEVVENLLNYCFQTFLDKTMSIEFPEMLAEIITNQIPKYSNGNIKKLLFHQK

In assay [3] the target is Halo-tag glucocorticoid receptor (UniProt P04150). Put plainly: pull-down; A549 cells transfected with Halo-tag-GR or Halo-tag control vector, vehicle or 100 nM Dex for 1 h; lysate bound to Halo-link resin, released with TEV protease; immunoblot for GR and Merm1.

Results are given in words; binding and its absence hold for the method and conditions named. Binding seen in cells or lysates may run through a third protein. Some results given as binding are weak or reduced against the parent protein; the word gives no strength.

B1: WBSCR22/metastasis-related methyltransferase 1 (Merm1), endogenous (protein, UniProt O43709 1-281)
chain: MASRGRRPEHGGPPELFYDETEARKYVRNSRMIDIQTRMAGRALELLYLPENKPCYLLDIGCGTGLSGSYLSDEGHYWVGLDISPAMLDEAVDREIEGDLLLGDMGQGIPFKPGTFDGCISISAVQWLCNANKKSENPAKRLYCFFASLFSVLVRGSRAVLQLYPENSEQLELITTQATKAGFSGGMVVDYPNSAKAKKFYLCLFSGPSTFIPEGLSENQDEVEPRESVFTNERFPLRMSRRGMVRKSRAWVLEKKERHRRQGREVRPDTQYTGRKRKPRF
On to B1, for which the binding entry is on record as “binds weakly” in assay [1], “no binding” in assay [2] and “no binding” in assay [3].

Source of the values: article PMC3979408.
